Results are given in words; binding and its absence hold for the method and conditions named. Sequences can lack the tags named with a protein.
Molecular target: T1, Unc45b^Flag, bacteria expressed and purified (mouse) (UniProt Q8CGY6)
T1 sequence: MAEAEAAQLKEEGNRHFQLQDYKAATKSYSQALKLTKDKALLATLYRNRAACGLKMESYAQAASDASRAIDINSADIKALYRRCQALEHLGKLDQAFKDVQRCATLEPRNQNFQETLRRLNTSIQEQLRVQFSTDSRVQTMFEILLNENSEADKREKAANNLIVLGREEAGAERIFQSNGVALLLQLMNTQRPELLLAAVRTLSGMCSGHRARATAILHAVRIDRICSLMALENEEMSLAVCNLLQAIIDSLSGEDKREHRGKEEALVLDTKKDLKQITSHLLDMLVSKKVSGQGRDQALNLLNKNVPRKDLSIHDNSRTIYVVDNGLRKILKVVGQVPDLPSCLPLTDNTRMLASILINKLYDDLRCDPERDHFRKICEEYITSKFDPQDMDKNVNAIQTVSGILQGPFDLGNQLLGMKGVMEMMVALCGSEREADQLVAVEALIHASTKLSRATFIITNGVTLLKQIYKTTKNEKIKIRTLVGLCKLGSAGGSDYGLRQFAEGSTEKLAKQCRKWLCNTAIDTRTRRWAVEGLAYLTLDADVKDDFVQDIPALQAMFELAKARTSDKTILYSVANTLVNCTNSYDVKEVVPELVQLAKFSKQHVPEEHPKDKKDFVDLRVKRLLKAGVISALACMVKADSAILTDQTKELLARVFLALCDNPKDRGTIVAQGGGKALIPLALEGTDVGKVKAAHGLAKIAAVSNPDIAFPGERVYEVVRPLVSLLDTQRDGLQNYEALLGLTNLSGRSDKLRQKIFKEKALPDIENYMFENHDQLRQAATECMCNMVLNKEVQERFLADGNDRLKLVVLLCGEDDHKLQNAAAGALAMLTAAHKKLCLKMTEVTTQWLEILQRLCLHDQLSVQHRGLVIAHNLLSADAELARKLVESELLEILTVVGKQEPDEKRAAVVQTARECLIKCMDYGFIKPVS
Assay: SEC; Superose 6 HR 10/300, 50 mM Tris-HCl pH 7.4, 150 mM NaCl, 1 mM DTT; purified proteins run alone or as a complex formed from equimolar amounts; both purified

B1: Unc45b^Flag, bacteria expressed and purified (protein, UniProt Q8CGY6 1-931)
chain: MAEAEAAQLKEEGNRHFQLQDYKAATKSYSQALKLTKDKALLATLYRNRAACGLKMESYAQAASDASRAIDINSADIKALYRRCQALEHLGKLDQAFKDVQRCATLEPRNQNFQETLRRLNTSIQEQLRVQFSTDSRVQTMFEILLNENSEADKREKAANNLIVLGREEAGAERIFQSNGVALLLQLMNTQRPELLLAAVRTLSGMCSGHRARATAILHAVRIDRICSLMALENEEMSLAVCNLLQAIIDSLSGEDKREHRGKEEALVLDTKKDLKQITSHLLDMLVSKKVSGQGRDQALNLLNKNVPRKDLSIHDNSRTIYVVDNGLRKILKVVGQVPDLPSCLPLTDNTRMLASILINKLYDDLRCDPERDHFRKICEEYITSKFDPQDMDKNVNAIQTVSGILQGPFDLGNQLLGMKGVMEMMVALCGSEREADQLVAVEALIHASTKLSRATFIITNGVTLLKQIYKTTKNEKIKIRTLVGLCKLGSAGGSDYGLRQFAEGSTEKLAKQCRKWLCNTAIDTRTRRWAVEGLAYLTLDADVKDDFVQDIPALQAMFELAKARTSDKTILYSVANTLVNCTNSYDVKEVVPELVQLAKFSKQHVPEEHPKDKKDFVDLRVKRLLKAGVISALACMVKADSAILTDQTKELLARVFLALCDNPKDRGTIVAQGGGKALIPLALEGTDVGKVKAAHGLAKIAAVSNPDIAFPGERVYEVVRPLVSLLDTQRDGLQNYEALLGLTNLSGRSDKLRQKIFKEKALPDIENYMFENHDQLRQAATECMCNMVLNKEVQERFLADGNDRLKLVVLLCGEDDHKLQNAAAGALAMLTAAHKKLCLKMTEVTTQWLEILQRLCLHDQLSVQHRGLVIAHNLLSADAELARKLVESELLEILTVVGKQEPDEKRAAVVQTARECLIKCMDYGFIKPVS
  binding: no binding

Reference: article PMC2377097
